Our source for the binding values is publication PMC6370788.

Amino acid sequences for entries named in this document (tags omitted).
UniProt Q9Y3D0: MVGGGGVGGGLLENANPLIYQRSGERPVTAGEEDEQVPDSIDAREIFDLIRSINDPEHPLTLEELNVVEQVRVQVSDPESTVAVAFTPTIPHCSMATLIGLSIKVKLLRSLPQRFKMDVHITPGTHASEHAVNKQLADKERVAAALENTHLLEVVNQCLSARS

This assay has as its target MIP18/Fam96B/CIA2B, endogenous in HeLa cells (human (endogenous in HeLa)) (UniProt Q9Y3D0). The experiment in a line: co-IP; Pierce Direct IP kit, anti-Ccdc117 or anti-CIA2B antibody coupled to the resin; 700 ug total protein of cycling native HeLa cell extract per column; 4 °C overnight; eluates analysed by Western blot.

These are yes or no findings as the source states them, for the method shown. In cells and extracts the contact can be indirect. Some entries that bind do so weakly or less than the wild type.

B1: Ccdc117, endogenous in HeLa cells (protein, UniProt Q8IWD4 1-279)
chain: MAALGRPFSGLPLSGGSDFLQPPQPAFPGRAFPPGADGAELAPRPGPRAVPSSPAGSAARGRVSVHCKKKHKREEEEDDDCPVRKKRITEAELCAGPNDWILCAHQDVEGHGVNPSVSGLSIPGILDVICEEMDQTTGEPQCEVARRKLQEIEDRIIDEDEEVEADRNVNHLPSLVLSDTMKTGLKREFDEVFTKKMIESMSRPSMELVLWKPLPELLSDKPKPSSNTKNYTGESQAKHVAAGTAFPQRTELFSEPRPTGMSLYNSLETATSTEEEMEL
Take B1: the binding result is reported as “binds”.
